# Results: PubChem BioAssay (EPA / NIEHS)
# Protein sequences, listed by entry. Tags and fused reporters are not part of them. Lines headed by an entry give the natural chain unless they say otherwise; changes in a name come on top.
# UniProt P60484: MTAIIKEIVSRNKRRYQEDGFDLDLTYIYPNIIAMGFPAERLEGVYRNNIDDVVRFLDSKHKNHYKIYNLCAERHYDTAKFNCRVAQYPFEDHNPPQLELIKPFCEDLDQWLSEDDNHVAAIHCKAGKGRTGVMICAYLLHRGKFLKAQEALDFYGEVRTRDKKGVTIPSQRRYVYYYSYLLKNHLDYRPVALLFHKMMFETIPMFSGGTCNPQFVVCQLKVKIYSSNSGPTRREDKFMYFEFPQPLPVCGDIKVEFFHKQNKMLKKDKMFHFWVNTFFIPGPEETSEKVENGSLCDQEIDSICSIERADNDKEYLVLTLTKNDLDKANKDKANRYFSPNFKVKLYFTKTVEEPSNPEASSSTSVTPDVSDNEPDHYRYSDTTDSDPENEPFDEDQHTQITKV
# Inconclusive means that the source gave no clear call. Such entries were picked first, then a sample of the others. Where the call is inconclusive, the potency comes from a doubtful curve fit. The source made the active and inactive calls. How the source made its calls: active means hit-call score of the fitted dose curve at least 0.9, where 1 is the maximum; inconclusive means response in the unintended direction; inactive means score below 0.9.
# Biological target: human Phosphatase and Tensin Homolog (PTEN), PTEN (gene 5728) (UniProt P60484)
# Test: NVS_ENZ_hPTEN: NovaScreen (NVS) Enzymatic Assay for human Phosphatase and Tensin Homolog (PTEN) (AID 2283203)
# Method in brief: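 Cell-free recombinant human PTEN with fluorescent substrate; product separated by electrophoretic mobility shift and read by fluorescence 1 h after dosing. Primary screen in duplicate at 25 uM, actives followed in concentration series versus DMSO.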
Structure (SMILES),outcome,AC50
CC=CC(=O)C1=C(C)C=CCC1(C)C,inactive,
O=CN1CCOCC1,,inconclusive: 1.47 µM
CC(CC(C)(C)C)CC(C)(C)CC(C)(C)C (stereo not given),,inconclusive: 0.0673 µM
c1ccc(-c2ccccc2-c2ccccc2)cc1,,inconclusive: 4.96 µM
O=C1c2c(O)ccc(Nc3ccc(CCO)cc3)c2C(=O)c2c([N+](=O)[O-])ccc(O)c21,,inconclusive: 0.124 µM
CCN(CC)c1ccc2c(c1)Oc1cc(N(CC)CC)ccc1C21OC(=O)c2ccccc21,,inconclusive: 0.0461 µM
O=c1cccc[nH]1,,inconclusive: 6.28 µM
C=CC(=O)OCCN(CC)CC,,inconclusive: 0.137 µM
Nc1cccc(N)n1,,inconclusive: 0.227 µM
CCOC=C(C(=O)OCC)C(=O)OCC,inactive,
CC1=CCC(=O)O1,,inconclusive: 6.05 µM
CC(C)(O)c1coc(S(=O)(=O)NC(=O)Nc2c3c(cc4c2CCC4)CCC3)c1,inactive,
C#C[C@]1(O)CC[C@H]2[C@@H]3CCC4=Cc5oncc5C[C@]4(C)[C@H]3CC[C@@]21C,,active: 25 µM
C=CCOC(=O)CCCCCC,,inconclusive: 0.141 µM
Fc1ccc(Br)cc1,inactive,
CC(C)(C)c1ccc(OC2CCCCC2O)cc1 (stereo not given),,inconclusive: 0.123 µM
COc1cccc(O)c1,,inconclusive: 0.758 µM
CC(=O)c1ccccc1N,,inconclusive: 6.32 µM
COc1ccc(CCN2CCC(Nc3nc4ccccc4n3Cc3ccc(F)cc3)CC2)cc1,inactive,
CCCCOCC,,active: 37 µM

# Reformatted: results already given
Structure (SMILES)	outcome	AC50
CC1=CCC(=O)O1		inconclusive: 6.05 µM
CC(C)(O)c1coc(S(=O)(=O)NC(=O)Nc2c3c(cc4c2CCC4)CCC3)c1	inactive	
